Publication PMC8053085, “Di-phosphorylated BAF shows altered structural dynamics and binding to DNA, but interacts with its nuclear envelope partners” (Nucleic Acids Research, 2021)
Numbering of substitutions follows the chain as printed. Numbers in names are those of the source. No constants are given. Whether binding was seen depends on the method and setting. Some entries that bind do so weakly or less than the wild type. Each block holds one binder with its values, some of them ahead of it.

The chains behind the UniProt entries cited, without tags or fusion partners. Residues count along the entry.
UniProt P02545, residues 411-566: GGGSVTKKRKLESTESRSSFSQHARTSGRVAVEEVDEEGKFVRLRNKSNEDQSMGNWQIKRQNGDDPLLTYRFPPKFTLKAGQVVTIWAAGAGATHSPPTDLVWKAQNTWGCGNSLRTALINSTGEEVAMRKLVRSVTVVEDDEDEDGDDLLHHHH

Tests used:
[1] = target: Complex of pBAF and LamIgF (pBAF-Igfold complex) (human) (UniProt O75531+P02545); test: NMR titration; 2D 1H-15N HSQC of 80 μM 15N LamIgF alone, with 160 μM BAF S4E or pBAF, then 80 μM EmN or LEM; control with 80 μM EmN alone; 50 mM HEPES pH 7.4, 100 mM NaCl, 20°C, 700 MHz; loss of peak intensity; both purified
[2] = target: T1, BAF S4E (phosphomimetic variant of the BAF construct) (human) (UniProt O75531); test: as above
T1 sequence: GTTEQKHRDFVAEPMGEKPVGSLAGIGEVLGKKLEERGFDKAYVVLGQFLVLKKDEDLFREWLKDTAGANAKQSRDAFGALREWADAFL

[3] = target: T2, Di-phosphorylated BAF (BAF phosphorylated by VRK1 on Thr3 and Ser4) (human) (UniProt O75531); test: as above
T2 sequence (chain, phosphothreonine at 3, phosphoserine at 4): T1 sequence with E4S

[4] = target: T2, Di-phosphorylated BAF (BAF phosphorylated by VRK1 on Thr3 and Ser4) (human); test: crystal structure; pBAF-EmN complex purified by gel filtration, 2 mg/ml; sitting drop, 0.1 M HEPES pH 7.5, PEG 6000 25%; 1.4 Å; both purified
[5] = target: IgFold domain of human lamin A/C from amino acid 411 to amino acid 566 (human) (UniProt P02545); test: NMR titration; 2D 1H-15N HSQC of 80 μM 15N LamIgF alone, with 160 μM BAF S4E or pBAF, then 80 μM EmN or LEM; control with 80 μM EmN alone; 50 mM HEPES pH 7.4, 100 mM NaCl, 20°C, 700 MHz; loss of peak intensity; both purified
[6] = target: T2, Di-phosphorylated BAF (BAF phosphorylated by VRK1 on Thr3 and Ser4) (human); test: crystal structure; pBAF dimer alone, 20 mg/ml; sitting drop, 0.2 M sodium fluoride, 20% PEG 3350; 3.2 Å; both purified

binding [5]: binds
B2: Complex between BAF S4E and EmN (complex, UniProt O75531 1-89; P50402 1-187)
chain 1: T1 sequence
chain 2: MDNYADLSDTELTTLLRRYNIPHGPVVGSTRRLYEKKIFEYETQRRRLSPPSSSAASSYSFSDLNSTRGDADMYDLPKKEDALLYQSKGYNDDYYEESYFTTRTYGEPESAGPSRAVRQSVTSFPDADAFHHQVHDDDLLSSSEEECKDRERPMYGRDSAYQSITHYRPVSASRSSLDLSYYPTSSS

binding [5]: binds
binding [6]: binds
B5: Di-phosphorylated BAF (BAF phosphorylated by VRK1 on Thr3 and Ser4) (natural protein, human, UniProt O75531 1-89, looked up)
chain: T1 sequence with E4S
modifications: phosphothreonine at 3, phosphoserine at 4
notes: human barrier-to-autointegration factor (BANF1), an 89-aa protein; residue 1 is a glycine left by the TEV site instead of the native methionine; all four cysteines mutated into alanine; phosphorylated on Thr3 and Ser4; Same construct as m1, then phosphorylated; also called pBAF; not shown: His tag, N-terminal, cleaved

Further lines, the binder ahead of its results:

B1: Nucleoplasmic region of human emerin from amino acid 1 to amino acid 187 (domain or fragment, UniProt P50402 1-187)
chain: B2 chain 2
binding [1]: binds
binding [2]: binds
binding [3]: binds
binding [4]: binds

B3: LEM domain of human emerin from amino acid 1 to amino acid 46 (domain or fragment, UniProt P50402 1-46, looked up)
chain: MDNYADLSDTELTTLLRRYNIPHGPVVGSTRRLYEKKIFEYETQRR
notes: human emerin, residues 1-46 (LEM domain); also called emerin LEM domain; LEM fragment
binding [1]: binds
binding [3]: binds

B4: BAF S4E (phosphomimetic variant of the BAF construct) (protein, UniProt O75531 1-89)
chain: T1 sequence
binding [5]: binds
